Laboratory results as given in publication PMC11100219, “Dual-function antimicrobial-antibiofilm peptide hybrid to tackle biofilm-forming Staphylococcus epidermidis” (Annals of Clinical Microbiology and Antimicrobials, 2024).
Residues, ends and D or L forms follow the SMILES beside them.

Assays:
Type in all cases: cell-based
[1] = system: all gram-positive bacterial strains; assay: Mean MIC and therapeutic index, gram-positive strains; conditions: ratio of MHC to GM of MICs, MHC >250 taken as 500, <0.98 as 0.49 µg/mL
Method: (§1) The minimal inhibitory concentrations (MICs) of peptide derivatives versus planktonic bacteria were assessed using a modification of the broth microdilution assay previously described in the National Committee for Clinical Laboratory Standards (NCCLS). In brief, bacteria at mid-logarithmic growth were collected by centrifugation at 2,500 × g for 5 min. Subsequently, the pellet was resuspended and adjusted in Mueller-Hinton Broth (MHB; BD Bacto™, USA) to an OD620 of 0.05. Fifty µL of bacterial suspensions was transferred to 96-well microplates. Later, 50 µL of peptide derivatives at 0.98–250 µg/mL in 10 mM PBS, was added to wells and incubated for 24 h at 37°C with continuous shaking at 220 rpm. […] The experiments were done in three technical replicates and repeated independently.
(§2) The therapeutic index (TI) is widely used for evaluating a peptide’s efficacy and safety. It is the ratio between the minimum hemolytic concentration (MHC, the concentration causing 10% hemolysis) and the geometric mean (GM) value of the MIC [15]. […] While, both lysine-substituted peptides (BiF2_7K and BiF2_5K7K) had higher TIs against all tested biofilm-forming bacteria than did the two parent peptides, and the TI of BiF2_5K7K was higher than that of BiF2_7K.

[2] = system: all gram-negative bacterial strains; assay: Mean MIC and therapeutic index, gram-negative strains; conditions: ratio of MHC to GM of MICs, MHC >250 taken as 500, <0.98 as 0.49 µg/mL
Method: as §1, §2

[3] = system: biofilm-forming bacteria; assay: Antibacterial activity against the panel of planktonic biofilm-forming bacteria; conditions: gram-positive and gram-negative TI together
Method: The biofilm-forming bacteria, including S. epidermidis ATCC 35984, Staphylococcus aureus ATCC 25923, Bacillus cereus ATCC 11778, Listeria monocytogenes 10403s, Pseudomonas aeruginosa ATCC 27853, Salmonella Typhimurium ATCC 13311, Escherichia coli ATCC 25922 and Acinetobacter baumanii MT strain, were used. All bacterial strains were grown on tryptic soy agar (TSA; BD Bacto™, USA) except E. coli and L. monocytogenes which were cultured on Luria agar (LA) and TSA supplemented with 0.6% Yeast Extract (TSAYE), respectively, at 37°C overnight. Subsequently, isolated colonies were inoculated and cultured in 5 mL of tryptic soy broth (TSB; BD Bacto™, USA), Luria Broth (LB), or TSB supplemented with 0.6% Yeast Extract (TSBYE) at 37°C for 16–18 h.
as §1

Row | Structure (SMILES) | TI +, therapeutic index [1] | TI-, therapeutic index [2] | therapeutic index (TI) [3]
1 | CC[C@H](C)[C@H](NC(=O)[C@H](CCCCN)NC(=O)[C@H](CCCCN)NC(=O)[C@@H](NC(=O)[C@H](CC(C)C)NC(=O)[C@@H](N)Cc1ccccc1)C(C)C)C(=O)N[C@@H](CCCCN)C(=O)N[C@@H](CCCCN)C(=O)N[C@H](C(=O)N[C@@H](CC(C)C)C(=O)N[C@@H](CCCNC(=N)N)C(=O)N[C@@H](CCCNC(=N)N)C(N)=O)[C@@H](C)CC [BiF2_5K7K] (H-FLVKKIKKILRR-NH2; N-terminus assumed) | 2.51 | 5.33 | –
2 | CC[C@H](C)[C@H](NC(=O)[C@H](CC(C)C)NC(=O)[C@H](CCCCN)NC(=O)[C@@H](NC(=O)[C@H](CC(C)C)NC(=O)[C@@H](N)Cc1ccccc1)C(C)C)C(=O)N[C@@H](CCCCN)C(=O)N[C@@H](CCCCN)C(=O)N[C@H](C(=O)N[C@@H](CC(C)C)C(=O)N[C@@H](CCCNC(=N)N)C(=O)N[C@@H](CCCNC(=N)N)C(N)=O)[C@@H](C)CC [BiF2_7K] (H-FLVKLIKKILRR-NH2; N-terminus assumed) | 1.60 | 1 | –
3 | CC[C@H](C)[C@H](NC(=O)[C@H](CC(C)C)NC(=O)[C@H](CCCCN)NC(=O)[C@@H](NC(=O)[C@H](CC(C)C)NC(=O)[C@@H](N)Cc1ccccc1)C(C)C)C(=O)N[C@@H](CC(C)C)C(=O)N[C@@H](CCCCN)C(=O)N[C@H](C(=O)N[C@@H](CC(C)C)C(=O)N[C@@H](CCCNC(=N)N)C(=O)N[C@@H](CCCNC(=N)N)C(N)=O)[C@@H](C)CC [BiF2] (H-FLVKLILKILRR-NH2; N-terminus assumed) | 0.06 | 0.05 | less than 0.2
4 | CC[C@H](C)[C@H](NC(=O)[C@H](CC(C)C)NC(=O)[C@H](CCCCN)NC(=O)[C@@H](NC(=O)[C@H](CC(C)C)NC(=O)[C@@H](N)Cc1ccccc1)C(C)C)C(=O)N[C@@H](CC(C)C)C(N)=O [BiF] (H-FLVKLIL-NH2; N-terminus assumed) | 0.03 | 0.03 | less than 0.2
5 | CC[C@H](C)[C@H](NC(=O)CN)C(=O)NCC(=O)N[C@@H](C)C(=O)N[C@H](C(=O)N[C@@H](CC(C)C)C(=O)N[C@@H](CCCCN)C(=O)N[C@H](C(=O)N[C@@H](CC(C)C)C(=O)N[C@H](C(=O)N[C@H](C(=O)NCC(=O)N[C@@H](CC(C)C)C(=O)N1CCC[C@H]1C(=O)N[C@@H](C)C(=O)N[C@@H](CC(C)C)C(=O)N[C@H](C(=O)N[C@@H](CO)C(=O)N[C@@H](Cc1c[nH]c2ccccc12)C(=O)N[C@H](C(=O)N[C@@H](CCCCN)C(=O)N[C@@H](CCCNC(=N)N)C(=O)N[C@@H](CCCCN)C(=O)N[C@@H](CCCNC(=N)N)C(=O)N[C@@H](CCC(N)=O)C(=O)N[C@@H](CCC(N)=O)C(N)=O)[C@@H](C)CC)[C@@H](C)CC)[C@@H](C)O)[C@@H](C)O)C(C)C)C(C)C [Melittin, melittin, reference compound] | 0.07 | 0.03 | less than 0.2
